Some of the results follow.
target: T1, OsSMF1 (Oryza sativa, UniProt Q6ZLB0 1-436); test: protein-binding microarray (RPBM); PBS, 2% BSA, 51.3 ng/ul salmon testes DNA, 50 uM zinc acetate, 200 nM TF, 25 C, 1 h; high values mean tight binding; conditions: protein: recombinant; tags: N-terminal polyhistidine and DsRed monomer fusion (pET32a); chain copies: 2; label: CyDye5-dUTP incorporated in the synthesized complementary strand; 3' TTTTT single-stranded linker to array surface; dsDNA, one strand shown
T1 sequence: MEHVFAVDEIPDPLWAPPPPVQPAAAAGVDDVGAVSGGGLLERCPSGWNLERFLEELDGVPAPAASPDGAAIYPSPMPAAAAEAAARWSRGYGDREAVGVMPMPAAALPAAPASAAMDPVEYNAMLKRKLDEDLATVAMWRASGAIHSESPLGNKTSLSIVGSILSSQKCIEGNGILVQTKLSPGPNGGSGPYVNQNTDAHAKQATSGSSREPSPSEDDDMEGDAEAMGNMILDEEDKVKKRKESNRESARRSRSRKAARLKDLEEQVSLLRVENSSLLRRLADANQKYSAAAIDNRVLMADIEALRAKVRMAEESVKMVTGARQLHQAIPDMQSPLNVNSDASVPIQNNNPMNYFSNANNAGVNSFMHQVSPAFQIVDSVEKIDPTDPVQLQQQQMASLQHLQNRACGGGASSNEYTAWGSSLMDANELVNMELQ
Procedure, shortened: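 Ni–NTA purification followed expression in E. coli BL21-CodonPlus of transcription factors fused N-terminally to a polyhistidine tag and DsRed. At 200 nM in PBS with 2% BSA, salmon testes DNA and 50 µM zinc acetate, the protein was incubated for 1 h at 25 °C with a custom Agilent array that had been primer-extended with Cy5-dUTP and blocked with 2% BSA. After washing, the array was read on an Axon 4000B scanner. The binding signal is per-feature fluorescence intensity in arbitrary units.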

**Q.** How did the binding signal turn out when “GAAAGGCTATCCACTCATACATGTTGGTGTCAGATACTCTCGGAGTCACCTAGTGCAG” was run?
**A.** 4630 fluorescence intensity (a.u.)

**Q.** Which binding signal does the source give for “CTCGGTTGAGACCGACGTGTCCGCATCCTGCCGCACTACCCGGAGTCACCTAGTGCAG” here?
**A.** 7270 fluorescence intensity (a.u.)

**Q.** How did the binding signal turn out when “CCATAGACTTCACTACTCATCTTGTTCGTCGTTTTAGTTGCGGAGTCACCTAGTGCAG” was run?
**A.** 15700 fluorescence intensity (a.u.)

**Q.** For “TGGCAATTGTCAAGTCAACCAGCTCATCATCCAATTGTTGCGGAGTCACCTAGTGCAG”, which binding signal is on record?
**A.** 3200 fluorescence intensity (a.u.)

**Q.** “TCGCCGTCCCCGTGTGTGGGCGGCCGCCTCCTGCTGCGCGCGGAGTCACCTAGTGCAG” was tested. Which binding signal did it give?
**A.** 3230 fluorescence intensity (a.u.)

**Q.** For “GGTATCGACAATCAACACGTCCTCGAACTACCTGTAGAACCGGAGTCACCTAGTGCAG”, which binding signal is on record?
**A.** 3230 fluorescence intensity (a.u.)

**Q.** How did the binding signal turn out when “CCGCCGCCGCCGCTCGATTCCAACGTCTCAACCCTGACCTCGGAGTCACCTAGTGCAG” was run?
**A.** 23700 fluorescence intensity (a.u.)

**Q.** How did the binding signal turn out when “AAACGAATCTAGGAATATATGTGACACATCATAGTACTACCGGAGTCACCTAGTGCAG” was run?
**A.** 4370 fluorescence intensity (a.u.)

**Q.** For “GCGCGCACGTACGCCTAAACCGAACGCACACGCACGCGCGCGGAGTCACCTAGTGCAG”, which binding signal is on record?
**A.** 3640 fluorescence intensity (a.u.)

**Q.** Which binding signal does the source give for “GCCAAGCCCGAATGATTCCACCACACGCCACCGATTCGATCGGAGTCACCTAGTGCAG” here?
**A.** 3770 fluorescence intensity (a.u.)

**Q.** How did the binding signal turn out when “AGGAGGGGTGGAGCTGGAGCTGGAGCTGTGCCAAACAGGCCGGAGTCACCTAGTGCAG” was run?
**A.** 3190 fluorescence intensity (a.u.)

**Q.** “GGGAGCGATCAAGGAGAAGCTGACGGTGAGCCTAGCGGCGCGGAGTCACCTAGTGCAG” was tested. Which binding signal did it give?
**A.** 3150 fluorescence intensity (a.u.)

**Q.** For “CCTAAACACTACGCAATTTGGCGGGTAGCTGAGTAGATTACGGAGTCACCTAGTGCAG”, which binding signal is on record?
**A.** 3200 fluorescence intensity (a.u.)

**Q.** Which binding signal does the source give for “TCGGCGACCACCAACACCTATAAGTAGAGGCAGGCACCAACGGAGTCACCTAGTGCAG” here?
**A.** 26300 fluorescence intensity (a.u.)

**Q.** How did the binding signal turn out when “TCAAGAAATCCACGTTTGACGAATAACCGGAATATTCGATCGGAGTCACCTAGTGCAG” was run?
**A.** 3660 fluorescence intensity (a.u.)

**Q.** With “AAATGACGTATCTATAGGAGAGACTATGATCAACGGTAACCGGAGTCACCTAGTGCAG” as the sequence, how does the binding signal read?
**A.** 3150 fluorescence intensity (a.u.)

**Q.** “GTTTTGCGCCGCCCGCACTGCCAGCCGCTGCCACGCTGCTCGGAGTCACCTAGTGCAG” was tested. Which binding signal did it give?
**A.** 3920 fluorescence intensity (a.u.)

**Q.** Which binding signal does the source give for “CTTGCCAGCAATGCATCACTGCCGGTCACCGGCTACCACGCGGAGTCACCTAGTGCAG” here?
**A.** 4720 fluorescence intensity (a.u.)

**Q.** Which binding signal does the source give for “CCGCCGCCGCCGACGCCGCGGGATAGCACTGACCGGAGCGCGGAGTCACCTAGTGCAG” here?
**A.** 19700 fluorescence intensity (a.u.)

**Q.** With “AATCATGGCGATTTGAGGGCAGGTGATCGATGACTGTGTACGGAGTCACCTAGTGCAG” as the sequence, how does the binding signal read?
**A.** 5020 fluorescence intensity (a.u.)

**Q.** Which binding signal does the source give for “GCACGTGTTGCGCACGGCGCACGCCGCCGCAAACTCTTTTCGGAGTCACCTAGTGCAG” here?
**A.** 22000 fluorescence intensity (a.u.)

**Q.** How did the binding signal turn out when “GTCAGAGCGGGGTCAATGAACGAGCACCGCACATCATCATCGGAGTCACCTAGTGCAG” was run?
**A.** 4140 fluorescence intensity (a.u.)

**Q.** Which binding signal does the source give for “CAATGTAACATGGTGATTCAGCACTTCTGGTGAAGTTGTGCGGAGTCACCTAGTGCAG” here?
**A.** 6000 fluorescence intensity (a.u.)

**Q.** For “GTTGCAACCTCCCGCCTCACCCGCCGCCATTGACGACCACCGGAGTCACCTAGTGCAG”, which binding signal is on record?
**A.** 3340 fluorescence intensity (a.u.)

**Q.** For “CTCATTCTAAGACATGATGCTACGCGACACGATGGCACTTCGGAGTCACCTAGTGCAG”, which binding signal is on record?
**A.** 4330 fluorescence intensity (a.u.)

**Q.** Which binding signal does the source give for “ACGTATATCTCTTTAAAGCAAATTTACTGCCTCCGATACGCGGAGTCACCTAGTGCAG” here?
**A.** 31300 fluorescence intensity (a.u.)

**Q.** With “TGTACTATGTTATTAATGTACATCACACTTAAGTGATCGACGGAGTCACCTAGTGCAG” as the sequence, how does the binding signal read?
**A.** 21500 fluorescence intensity (a.u.)

**Q.** How did the binding signal turn out when “ATATATATATATATATATATATATGACCACCTCTCCTCCTCGGAGTCACCTAGTGCAG” was run?
**A.** 4400 fluorescence intensity (a.u.)

**Q.** For “TGTTTCAGCCATCAATCCGCGTTTTGGTGTCGCGTCGAATCGGAGTCACCTAGTGCAG”, which binding signal is on record?
**A.** 3420 fluorescence intensity (a.u.)

**Q.** Which binding signal does the source give for “GCCGTGAACCAAAGCTCTTGCCGTGCTGTGCCGTGCCGGTCGGAGTCACCTAGTGCAG” here?
**A.** 3220 fluorescence intensity (a.u.)

**Q.** Which binding signal does the source give for “CCATTCTTGTCCAACCCACTCTCGTCATATCCCATTGCCACGGAGTCACCTAGTGCAG” here?
**A.** 3500 fluorescence intensity (a.u.)

**Q.** For “TGAAAATGGTGTTGGCATCATAAAATATTTAACCAACCCCCGGAGTCACCTAGTGCAG”, which binding signal is on record?
**A.** 3150 fluorescence intensity (a.u.)

**Q.** Which binding signal does the source give for “CGCGCGTGCAAGGAGGCGTGAGGTGGGCAATTGGTCATTGCGGAGTCACCTAGTGCAG” here?
**A.** 5110 fluorescence intensity (a.u.)

**Q.** How did the binding signal turn out when “AGTCAGCACCCTGTCACCTAACTAGCGTCGGTAATTAACACGGAGTCACCTAGTGCAG” was run?
**A.** 4030 fluorescence intensity (a.u.)

**Q.** For “TCTGACGGGTGGGCCCCAGTGGTCGCACACGTAAACCCTTCGGAGTCACCTAGTGCAG”, which binding signal is on record?
**A.** 3610 fluorescence intensity (a.u.)

**Q.** With “TTATCAAGTTAATCTGATTAGCCACGTGCTGATTGATAAGCGGAGTCACCTAGTGCAG” as the sequence, how does the binding signal read?
**A.** 3940 fluorescence intensity (a.u.)

**Q.** For “GGCCCACGTGGGCCCACGCTGACTCAGCAGCCACGTAGGACGGAGTCACCTAGTGCAG”, which binding signal is on record?
**A.** 14500 fluorescence intensity (a.u.)

**Q.** How did the binding signal turn out when “CTCGCCACGCCGACACGAACACGTGTACACGACGCGACGCCGGAGTCACCTAGTGCAG” was run?
**A.** 13300 fluorescence intensity (a.u.)

**Q.** For “ACTTTGATTCTTTCTGCCTCTGCGTACGTGCGTGAGAGAGCGGAGTCACCTAGTGCAG”, which binding signal is on record?
**A.** 3470 fluorescence intensity (a.u.)

**Q.** “ACAATTACTGTATTGTGCATATAAGCTGCATATCTATCACCGGAGTCACCTAGTGCAG” was tested. Which binding signal did it give?
**A.** 39900 fluorescence intensity (a.u.)

**Q.** For “GATCTCAAGTCTACCCCTCTTTCGTCTTTCCCGATCCAAACGGAGTCACCTAGTGCAG”, which binding signal is on record?
**A.** 3360 fluorescence intensity (a.u.)

**Q.** Which binding signal does the source give for “GCGCGGCAGAGGGTGACGGCGGCGGCAACCAGACGGTCGGCGGAGTCACCTAGTGCAG” here?
**A.** 4140 fluorescence intensity (a.u.)

From PMC7819943, “Rice protein-binding microarrays: a tool to detect cis-acting elements near promoter regions in rice”
